Reference: the supplement of paper PMC10735217
Where a name gives a salt, the structure may show the parent alone. The list shows a part of the results. Repeats in this data set agree poorly, so a single value says little.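 Human kidney-derived cells stably carry a construct in which eight TEAD-binding elements drive luciferase, measured by luminescence in a drug-repurposing library screen. A hit is any compound whose signal exceeds the plate mean by more than five robust Z scores.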

Tested on: HEK293A TEAD-LUC reporter
Experiment: TEAD-luciferase reporter activity (YAP activation), robust Z score vs plate; higher = stronger YAP/TEAD activation
Conditions: 24 h

Structure (SMILES)	TEAD-luciferase reporter activity (compound concentration: 200 nM)	TEAD-luciferase reporter activity (compound concentration: 2 uM)	TEAD-luciferase reporter activity (compound concentration: 10 uM)
O=C(/C=C/c1ccc(F)cc1)NC[C@@H]1CN(c2ccc(N3CCOCC3)c(F)c2)C(=O)O1	inactive: -0.213	inactive: -0.496	inactive: 2.32
CC(C)[C@H](NC(=O)NCC(C)(C)O)C(=O)N1CC[C@](O)(c2ccc(Cl)cc2)C(C)(C)C1	inactive: -0.134	inactive: 0.463	inactive: -0.274
CCOCCn1c(C2CCN(CCc3ccc(C(C)(C)C)cc3)CC2)nc2ccccc21	inactive: 0.289	inactive: 2.03	inactive: 2.22
COCCNCCc1cccc(Nc2ncc3c(n2)-c2ccccc2[C@@H](c2ccccc2F)C3)c1	inactive: -1.68	inactive: 0.98	inactive: -0.0864
CNC(=O)c1ccc2ccn(C3CCN(CCc4c(OC)ccc5c4OC(C)(C)CC5=O)CC3)c2c1	inactive: 0.371	inactive: -0.755	inactive: 3.27
COc1cc(OCc2nc(N3CCOCC3)sc2C)c2cc(-c3cn4nc(OC)sc4n3)oc2c1	inactive: -0.515	inactive: -0.813	inactive: 2.78
NC(=O)CCN1CCN(C2Cc3cc(Cl)ccc3Sc3cc(F)ccc32)CC1 (stereo not drawn)	inactive: -0.57	inactive: -0.231	inactive: -1.54
OC1CCN(c2ccc(-c3ccccc3Cl)nn2)CC1 [Lodaxaprine]	inactive: -0.0502	inactive: 0.211	inactive: 1.24
CCOC(=O)C1=Cc2ccccc2OC1C(F)(F)F (stereo not drawn)	inactive: 0.307	inactive: -0.0353	inactive: 0.829
CC(C)(Cc1ccc2ccccc2c1)NC[C@@H](O)COc1cccc(Cl)c1C#N	inactive: -2.81	inactive: -1.75	inactive: -1.02
Cc1c(C(=O)NCCC(=O)O)s/c(=N/C(=O)c2ccc(C(=N)NCCCC(=O)O)cc2)n1C	inactive: -0.776	inactive: 2.93	inactive: -1.01
CCCCCC1C(=O)N2C=C(c3ccccc3)c3ccccc3N2C1=O (stereo not drawn)	inactive: 0.832	inactive: -1.63	inactive: -1.86
COc1cc2c(N3CCN(C(=O)Nc4ccc(OC(C)C)cc4)CC3)ncnc2cc1OCCCN1CCCCC1 [tandutinib]	inactive: 0.404	inactive: -0.493	inactive: 1.34
O=C(C=C(O)c1nnc[nH]1)c1ccc(Cc2ccc(F)cc2)o1	inactive: -0.457	inactive: 1.27	inactive: 0.562
NC[C@@H]1O[C@H](O[C@H]2[C@@H](O)[C@H](O[C@@H]3[C@@H](O)[C@H](N)C[C@H](N)[C@H]3O[C@H]3O[C@H](CN)[C@@H](O)[C@H](O)[C@H]3N)O[C@@H]2CO)[C@H](N)[C@@H](O)[C@@H]1O [Neomycin sulfate]	inactive: -0.385	inactive: -1.14	inactive: -0.379
c1ccc2c(c1)OCC(CN1CCCCC1)O2 (stereo not drawn)	inactive: 0.077	inactive: -0.326	inactive: -0.943
N#CC1(c2ccc(NC(=O)c3cccnc3NCc3ccncc3)cc2)CCCC1 [Apatinib mesylate]	inactive: -1.76	inactive: 0.141	inactive: -0.0397
CC[C@H](C)[C@@H]1NC(=O)[C@H](Cc2c[nH]c3ccccc23)NC(=O)[C@H]([C@@H](C)O)NC(=O)[C@@H]2CCCN2C(=O)[C@H]2CCCN2C(=O)[C@H](CO)NC(=O)[C@H](C)NC(=O)[C@H](CCN)NC(=O)[C@H](CCN)NC(=O)[C@H](Cc2c[nH]c3ccccc23)NC(=O)[C@H](CCN)NC(=O)[C@@H](CCN)NC(=O)[C@H](CCCN)NC(=O)[C@H](CCN)NC1=O [Murepavadin]	inactive: 0.163	inactive: 3.02	inactive: -1.31
CN[C@@H]1COc2ccccc2[C@H](O)C1 [exepanol]	inactive: -0.36	inactive: 0.475	active: 10.7
COc1ccc2c(c1OC)CCC(NC(C)C(O)c1ccc(O)cc1)C2 (stereo not drawn)	inactive: -0.843	inactive: -0.588	inactive: 0.321
CC/C=C/CC(=O)N[C@@H](Cc1ccc(O)cc1)C(=O)N[C@@H](C)C(=O)N[C@@H](CC(=O)O)C(=O)N[C@@H](C)C(=O)N[C@H](C(=O)N[C@@H](Cc1ccccc1)C(=O)N[C@H](C(=O)N[C@@H](CC(N)=O)C(=O)N[C@@H](CO)C(=O)N[C@@H](Cc1ccc(O)cc1)C(=O)N[C@@H](CCCNC(=N)N)C(=O)N[C@@H](CCCCN)C(=O)N[C@H](C(=O)NCC(=O)N[C@@H](CC(C)C)C(=O)N[C@@H](CCC(N)=O)C(=O)N[C@@H](CC(C)C)C(=O)N[C@@H](CO)C(=O)N[C@@H](C)C(=O)N[C@@H](CCCNC(=N)N)C(=O)N[C@@H](CCCCN)C(=O)N[C@@H](CC(C)C)C(=O)N[C@@H](CC(C)C)C(=O)N[C@@H](CCC(N)=O)C(=O)N[C@@H](CC(=O)O)C(=O)N[C@H](C(=O)N[C@@H](CCSC)C(=O)N[C@@H](CO)C(=O)N[C@@H](CCCNC(=N)N)C(=O)N[C@@H](CCC(N)=O)C(=O)NCC(=O)N[C@@H](CCC(N)=O)C(=O)N[C@@H](CCC(=O)O)C(=O)N[C@@H](CO)C(=O)N[C@@H](CC(N)=O)C(=O)N[C@@H](CCC(N)=O)C(=O)N[C@@H](CCC(=O)O)C(=O)N[C@@H](CCCNC(=N)N)C(=O)N[C@@H](C)C(=O)NCC(=O)N[C@@H](CCCNC(=N)N)C(=O)N[C@@H](C)C(=O)N[C@@H](CCCNC(=N)N)C(=O)N[C@@H](CC(C)C)C(N)=O)[C@@H](C)CC)C(C)C)[C@@H](C)O)[C@@H](C)CC [Tesamorelin]	inactive: -1.35	inactive: -0.528	inactive: 0.819

Structure (SMILES)	TEAD-luciferase reporter activity (compound concentration: 200 nM)	TEAD-luciferase reporter activity (compound concentration: 2 uM)	TEAD-luciferase reporter activity (compound concentration: 10 uM)
CSCC[C@H](NC(=O)[C@H](Cc1c[nH]c2ccccc12)NC(=O)CNC(=O)C(NC(=O)[C@H](Cc1ccc(OS(=O)(=O)O)cc1)NC(=O)[C@H](CC(=O)O)NC(=O)[C@H](CCC(N)=O)NC(=O)[C@@H]1CCC(=O)N1)[C@@H](C)O)C(=O)N[C@@H](CC(=O)O)C(=O)N[C@@H](Cc1ccccc1)C(N)=O (stereo partly drawn) [ceruletide, Fukuoka]	inactive: -0.841	inactive: 0.182	inactive: 3.38
CC(C)C[C@H](C(=O)NCC(N)=O)N(C)C(=O)[C@@H]1CCCN1	inactive: -1.35	inactive: -0.804	inactive: -0.628
COc1ccc([C@@H](O)c2cc(-c3ncnc4cc(N5CCOCC5)ccc34)c(F)cc2Cl)nn1	inactive: -0.0257	inactive: -1.77	inactive: 1.8
C[Se]CC[C@H](N)C(=O)O [L-SelenoMethionine]	inactive: -1.27	inactive: -0.746	inactive: -0.66
CN1C(=O)N(c2cc(Cl)cc(Cl)c2)C(=O)[C@]12CN(Cc1cc(C(=O)O)cs1)C[C@H]2c1ccc(C#N)cc1	inactive: -1.49	inactive: -0.77	inactive: 0.231
CN1NC(C(N)=O)=CCC1=O	inactive: 0.789	inactive: -0.723	inactive: 0.217
CCOC(=O)[C@@](C)(N)Cc1ccc(O)c(O)c1	inactive: 1.52	inactive: -0.502	inactive: -1.23
N#Cc1ccc(NC(=O)Nc2ccccc2Br)c2[nH]nnc12	inactive: -2.6	inactive: -0.965	inactive: 0.381
N=C(N)c1ccc(OCCCCCOc2ccc(C(=N)N)cc2)cc1 [pentamidine isethionate, Oncozyme]	inactive: -0.236	inactive: 1.37	inactive: 2.56
CN(C)CC(Oc1ccccc1)Oc1ccccc1 [medifoxamine]	inactive: -0.82	inactive: -0.851	inactive: -0.749
C[C@@H](CO)Oc1cc(Oc2ccc(S(C)(=O)=O)cc2)cc(C(=O)Nc2ccn(C)n2)c1	inactive: 1.25	inactive: 0.723	inactive: -0.575
CC(C)CC1Nc2cc(Cl)c(S(N)(=O)=O)cc2S(=O)(=O)N1 (stereo not drawn)	inactive: 0.0965	inactive: 1.46	inactive: 0.374
CC(C)Oc1ccc(-c2ccccc2C(=O)Nc2ccc3cc(C(=O)N[C@H](C(=O)N(C)Cc4ccc(F)cc4)c4ccccc4)ccc3n2)cc1	inactive: -1.42	inactive: 1.32	inactive: 0.0515
CC(=O)[C@@]1(O)CCC2C3C=CC4=CC(=O)CC[C@]4(C)C3CC[C@@]21C (stereo partly drawn)	inactive: -1.21	inactive: -0.536	inactive: 4.7
O=C(O)c1ccc(Cc2ccccc2)cn1	inactive: -0.902	inactive: -1.34	inactive: 2.03
CCCCCOc1ccc(C2SC(=O)NC2=O)cc1OCC (stereo not drawn)	inactive: -0.0542	inactive: -0.642	inactive: -0.668
CCOc1ccc(-c2ccncc2)c(NC(=O)CC(C)N)c1 (stereo not drawn)	inactive: 0.746	inactive: -0.794	inactive: 0.203
CCNC(=O)CCC/C=C\C[C@@H]1[C@@H](/C=C/[C@@H](O)CCc2ccccc2)[C@H](O)C[C@@H]1O [bimatoprost sustained release]	–	inactive: -0.237	–
CCNC(=O)CCC/C=C\C[C@@H]1[C@@H](/C=C/[C@@H](O)CCc2ccccc2)[C@H](O)C[C@@H]1O [bimatoprost sustained release, Allergan]	inactive: -0.72	–	inactive: -1.14
COc1ccccc1N1CCN(CCN(C(=O)C2CCCCC2)c2ccccc2[N+](=O)[O-])CC1	inactive: -1.14	inactive: -1.2	inactive: -0.447
CC/C=C\C/C=C\C/C=C\C/C=C\C/C=C\C/C=C\CCC(=O)NCCNC(=O)c1ccccc1O	inactive: -2.24	inactive: -0.84	inactive: -0.43

Whole records, quoted from the list:
COc1ccccc1N1CCN(CCN(C(=O)C2CCCCC2)c2ccccc2[N+](=O)[O-])CC1 is listed as TEAD-luciferase reporter activity (compound concentration: 200 nM): inactive: -1.14; TEAD-luciferase reporter activity (compound concentration: 2 uM): inactive: -1.2; TEAD-luciferase reporter activity (compound concentration: 10 uM): inactive: -0.447
CCOC(=O)C1=Cc2ccccc2OC1C(F)(F)F (stereo not drawn) is listed as TEAD-luciferase reporter activity (compound concentration: 200 nM): inactive: 0.307; TEAD-luciferase reporter activity (compound concentration: 2 uM): inactive: -0.0353; TEAD-luciferase reporter activity (compound concentration: 10 uM): inactive: 0.829
O=C(O)c1ccc(Cc2ccccc2)cn1 is listed as TEAD-luciferase reporter activity (compound concentration: 200 nM): inactive: -0.902; TEAD-luciferase reporter activity (compound concentration: 2 uM): inactive: -1.34; TEAD-luciferase reporter activity (compound concentration: 10 uM): inactive: 2.03
